From article doi:10.1101/2024.11.26.625561
No constants are given. Whether binding was seen depends on the method and setting. In cells and extracts the contact can be indirect. Some results given as binding are weak or reduced against the parent protein; the word gives no strength. One block for each molecule: values may come before it.

Sequences of proteins named here, by UniProt entry; tags and fusion partners are left off.
UniProt P41233: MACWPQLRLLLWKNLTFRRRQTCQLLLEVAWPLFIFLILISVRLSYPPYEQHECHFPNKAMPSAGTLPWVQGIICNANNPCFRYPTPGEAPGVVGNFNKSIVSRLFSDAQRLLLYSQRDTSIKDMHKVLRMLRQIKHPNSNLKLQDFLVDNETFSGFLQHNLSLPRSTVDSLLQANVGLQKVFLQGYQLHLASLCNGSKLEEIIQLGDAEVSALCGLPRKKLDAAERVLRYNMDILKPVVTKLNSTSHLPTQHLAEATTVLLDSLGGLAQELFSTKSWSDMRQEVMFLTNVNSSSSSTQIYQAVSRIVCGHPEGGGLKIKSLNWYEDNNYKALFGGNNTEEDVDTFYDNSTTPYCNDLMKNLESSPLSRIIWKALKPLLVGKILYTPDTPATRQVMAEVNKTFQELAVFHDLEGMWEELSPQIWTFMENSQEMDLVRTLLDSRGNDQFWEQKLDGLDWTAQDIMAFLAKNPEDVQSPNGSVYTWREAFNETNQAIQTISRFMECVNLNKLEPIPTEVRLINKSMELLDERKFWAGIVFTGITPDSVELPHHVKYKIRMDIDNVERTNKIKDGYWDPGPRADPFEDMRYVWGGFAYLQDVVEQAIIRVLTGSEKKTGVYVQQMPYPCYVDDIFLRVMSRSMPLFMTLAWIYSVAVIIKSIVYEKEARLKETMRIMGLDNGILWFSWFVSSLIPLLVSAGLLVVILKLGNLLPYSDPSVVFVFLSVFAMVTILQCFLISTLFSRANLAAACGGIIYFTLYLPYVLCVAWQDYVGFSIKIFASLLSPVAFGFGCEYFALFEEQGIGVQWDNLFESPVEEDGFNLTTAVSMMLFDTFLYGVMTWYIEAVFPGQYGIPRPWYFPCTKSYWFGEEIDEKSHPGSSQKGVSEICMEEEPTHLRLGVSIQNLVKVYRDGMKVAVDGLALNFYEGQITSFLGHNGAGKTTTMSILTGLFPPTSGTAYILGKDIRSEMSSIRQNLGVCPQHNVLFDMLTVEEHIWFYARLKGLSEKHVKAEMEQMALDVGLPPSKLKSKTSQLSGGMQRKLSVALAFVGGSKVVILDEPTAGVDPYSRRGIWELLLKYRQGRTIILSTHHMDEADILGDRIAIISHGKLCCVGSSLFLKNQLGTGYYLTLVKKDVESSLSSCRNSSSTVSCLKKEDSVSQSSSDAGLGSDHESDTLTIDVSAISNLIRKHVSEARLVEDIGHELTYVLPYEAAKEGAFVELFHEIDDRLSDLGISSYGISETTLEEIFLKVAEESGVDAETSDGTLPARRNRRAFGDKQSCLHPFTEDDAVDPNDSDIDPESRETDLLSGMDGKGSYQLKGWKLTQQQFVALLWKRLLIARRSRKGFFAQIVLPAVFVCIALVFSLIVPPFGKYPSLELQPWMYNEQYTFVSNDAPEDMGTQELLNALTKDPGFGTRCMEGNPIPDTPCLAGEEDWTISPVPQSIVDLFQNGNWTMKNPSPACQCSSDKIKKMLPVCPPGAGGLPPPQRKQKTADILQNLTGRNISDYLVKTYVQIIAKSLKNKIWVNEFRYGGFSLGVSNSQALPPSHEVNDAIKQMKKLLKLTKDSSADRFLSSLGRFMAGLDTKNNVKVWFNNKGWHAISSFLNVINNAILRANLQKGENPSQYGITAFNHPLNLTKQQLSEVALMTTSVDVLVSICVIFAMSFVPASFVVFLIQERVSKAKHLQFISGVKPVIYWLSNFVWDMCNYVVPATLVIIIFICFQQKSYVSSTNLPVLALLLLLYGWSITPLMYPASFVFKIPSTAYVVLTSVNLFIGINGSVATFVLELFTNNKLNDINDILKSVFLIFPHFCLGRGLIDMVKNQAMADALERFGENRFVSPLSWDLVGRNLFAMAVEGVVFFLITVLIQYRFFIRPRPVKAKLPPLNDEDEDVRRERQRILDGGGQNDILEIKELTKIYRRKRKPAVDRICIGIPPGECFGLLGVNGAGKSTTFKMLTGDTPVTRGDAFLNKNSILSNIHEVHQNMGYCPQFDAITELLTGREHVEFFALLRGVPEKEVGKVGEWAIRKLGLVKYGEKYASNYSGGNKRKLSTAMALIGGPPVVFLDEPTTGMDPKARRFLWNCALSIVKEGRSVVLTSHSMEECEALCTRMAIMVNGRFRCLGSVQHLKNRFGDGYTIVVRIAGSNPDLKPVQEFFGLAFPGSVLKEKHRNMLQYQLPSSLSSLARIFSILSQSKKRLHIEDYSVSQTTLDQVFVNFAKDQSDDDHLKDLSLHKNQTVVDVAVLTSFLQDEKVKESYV

Target: T1, CEACAM1 (UniProt P31809)
T1 sequence: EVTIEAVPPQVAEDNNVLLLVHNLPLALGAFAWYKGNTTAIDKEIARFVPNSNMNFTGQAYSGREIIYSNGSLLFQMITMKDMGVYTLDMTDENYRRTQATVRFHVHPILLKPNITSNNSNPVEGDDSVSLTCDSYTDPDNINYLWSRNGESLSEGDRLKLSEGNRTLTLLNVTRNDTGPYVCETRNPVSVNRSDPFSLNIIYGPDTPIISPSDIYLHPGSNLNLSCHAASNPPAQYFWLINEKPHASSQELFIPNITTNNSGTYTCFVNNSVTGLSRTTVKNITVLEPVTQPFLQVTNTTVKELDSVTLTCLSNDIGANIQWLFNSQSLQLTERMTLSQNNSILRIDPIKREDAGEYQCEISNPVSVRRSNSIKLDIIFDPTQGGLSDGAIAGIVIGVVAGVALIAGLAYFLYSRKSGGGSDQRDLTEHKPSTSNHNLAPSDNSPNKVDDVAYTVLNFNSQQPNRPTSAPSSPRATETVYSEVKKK
Test: co-IP

binding: binds
Molecule: ABCA1 (from UniProt P41233 1-2261)

binding: no binding
B1: Pygm (protein, UniProt Q9WUB3 1-842)
chain: MSRPLSDQDKRKQISVRGLAGVENVSELKKNFNRHLHFTLVKDRNVATPRDYYFALAHTVRDHLVGRWIRTQQHYYEKDPKRIYYLSLEFYMGRTLQNTMVNLALENACDEATYQLGLDMEELEEIEEDAGLGNGGLGRLAACFLDSMATLGLAAYGYGIRYEFGIFNQKICGGWQMEEADDWLRYGNPWEKARPEFTLPVHFYGRVEHTSQGAKWVDTQVVLAMPYDTPVPGYRNNVVNTMRLWSAKAPNDFNLKDFNVGGYIQAVLDRNLAENISRVLYPNDNFFEGKELRLKQEYFVVAATLQDIIRRFKSSKFGSRDPVRTNFDAFPDKVAIQLNDTHPSLAIPELMRILVDLERLDWDKAWDVTVKTCAYTNHTVLPEALERWPVHLMETLLPRHLQIIYEINQRFLNRVAAAFPGDVDRLRRMSLVEEGAVKRINMAHLCIAGSHAVNGVARIHSEILKKTIFKDFYELEPHKFQNKTNGITPRRWLVLCNPGLAEVIAERIGEDYISDLDQLRKLLSYVDDEAFIRDVAKVKQENKLKFSAYLEREYKVHINPNSLFDVQVKRIHEYKRQLLNCLHIITLYNRIKREPNRFMVPRTIMIGGKAAPGYHMAKMIIKLITAIGDVVNHDPAVGDRLRVIFLENYRVSLAEKVIPAADLSEQISTAGTEASGTGNMKFMLNGALTIGTMDGANVEMAEEAGEENFFIFGMRVEDVERLDQRGYNAQEYYDRIPELRQIIEQLSSGFFSPKQPDLFKDIVNMLMHHDRFKVFADYEEYIKCQDKVSELYKNPREWTRMVIRNIATSGKFSSDRTIAQYAREIWGVEPSRQRLPAPDEKI
